This is one part of the list. Most values lie at the level of the controls, where differences are scatter.
Each target was assayed with CN[C@@H]1C[C@H]2O[C@@](C)([C@@H]1OC)n1c3ccccc3c3c4c(c5c6ccccc6n2c5c31)C(=O)NC4 [staurosporine] (assay: log2 fold change of tryptic peptide abundance, ligand vs vehicle (limited proteolysis) (log2 ratio); higher = more trypsin-susceptible (destabilized)). Details: ligand concentration: 20 uM; sample: K562 cleared lysate; digestion: 4 min, 22 C (HT-PELSA RT4min, Orbitrap Astral).

By UniProt entry, the sequences of proteins in these tests, tags left out. Where a name states a change or a piece, a line headed by the entry shows the natural chain unless it says otherwise.
UniProt Q69YN2: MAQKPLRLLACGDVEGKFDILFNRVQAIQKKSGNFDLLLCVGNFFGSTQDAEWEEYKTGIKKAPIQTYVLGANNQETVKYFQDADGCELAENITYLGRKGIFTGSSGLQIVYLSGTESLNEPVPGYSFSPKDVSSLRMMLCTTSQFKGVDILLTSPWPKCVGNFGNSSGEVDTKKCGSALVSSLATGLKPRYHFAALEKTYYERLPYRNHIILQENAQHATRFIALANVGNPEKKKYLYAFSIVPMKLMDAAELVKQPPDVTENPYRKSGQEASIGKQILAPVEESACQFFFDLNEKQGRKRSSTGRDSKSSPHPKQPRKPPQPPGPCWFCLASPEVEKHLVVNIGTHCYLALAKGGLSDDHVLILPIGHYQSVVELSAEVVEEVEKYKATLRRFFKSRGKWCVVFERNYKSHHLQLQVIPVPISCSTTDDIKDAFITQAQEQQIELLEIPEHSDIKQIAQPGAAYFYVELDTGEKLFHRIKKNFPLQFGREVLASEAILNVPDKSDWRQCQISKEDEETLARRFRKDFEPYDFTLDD
UniProt Q6UWU4: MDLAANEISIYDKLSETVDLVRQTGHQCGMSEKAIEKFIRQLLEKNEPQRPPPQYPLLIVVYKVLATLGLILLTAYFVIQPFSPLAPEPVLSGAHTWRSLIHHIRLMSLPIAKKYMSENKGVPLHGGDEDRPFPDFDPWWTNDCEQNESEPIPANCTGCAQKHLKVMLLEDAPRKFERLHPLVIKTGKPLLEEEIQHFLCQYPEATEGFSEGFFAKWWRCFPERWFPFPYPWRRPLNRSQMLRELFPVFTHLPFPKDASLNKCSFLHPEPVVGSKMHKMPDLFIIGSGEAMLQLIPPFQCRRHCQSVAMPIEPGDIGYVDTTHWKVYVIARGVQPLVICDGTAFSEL
UniProt Q6P444: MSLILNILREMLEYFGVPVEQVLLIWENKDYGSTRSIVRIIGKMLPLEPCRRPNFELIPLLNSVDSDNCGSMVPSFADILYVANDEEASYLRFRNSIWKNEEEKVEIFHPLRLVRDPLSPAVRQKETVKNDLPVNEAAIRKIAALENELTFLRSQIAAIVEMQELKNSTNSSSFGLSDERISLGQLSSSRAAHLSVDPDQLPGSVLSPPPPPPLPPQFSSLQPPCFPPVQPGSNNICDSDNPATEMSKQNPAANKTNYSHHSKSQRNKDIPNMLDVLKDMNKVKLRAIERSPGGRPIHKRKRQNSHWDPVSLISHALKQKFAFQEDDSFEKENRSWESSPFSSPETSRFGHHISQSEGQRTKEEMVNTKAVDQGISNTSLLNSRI
UniProt Q6NVH7: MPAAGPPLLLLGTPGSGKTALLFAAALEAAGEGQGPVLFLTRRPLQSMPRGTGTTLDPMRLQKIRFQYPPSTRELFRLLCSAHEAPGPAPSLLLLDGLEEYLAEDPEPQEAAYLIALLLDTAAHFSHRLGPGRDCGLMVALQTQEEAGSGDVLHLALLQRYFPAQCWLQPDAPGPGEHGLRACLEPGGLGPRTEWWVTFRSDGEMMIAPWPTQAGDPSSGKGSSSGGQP
UniProt Q641Q2, whole entry: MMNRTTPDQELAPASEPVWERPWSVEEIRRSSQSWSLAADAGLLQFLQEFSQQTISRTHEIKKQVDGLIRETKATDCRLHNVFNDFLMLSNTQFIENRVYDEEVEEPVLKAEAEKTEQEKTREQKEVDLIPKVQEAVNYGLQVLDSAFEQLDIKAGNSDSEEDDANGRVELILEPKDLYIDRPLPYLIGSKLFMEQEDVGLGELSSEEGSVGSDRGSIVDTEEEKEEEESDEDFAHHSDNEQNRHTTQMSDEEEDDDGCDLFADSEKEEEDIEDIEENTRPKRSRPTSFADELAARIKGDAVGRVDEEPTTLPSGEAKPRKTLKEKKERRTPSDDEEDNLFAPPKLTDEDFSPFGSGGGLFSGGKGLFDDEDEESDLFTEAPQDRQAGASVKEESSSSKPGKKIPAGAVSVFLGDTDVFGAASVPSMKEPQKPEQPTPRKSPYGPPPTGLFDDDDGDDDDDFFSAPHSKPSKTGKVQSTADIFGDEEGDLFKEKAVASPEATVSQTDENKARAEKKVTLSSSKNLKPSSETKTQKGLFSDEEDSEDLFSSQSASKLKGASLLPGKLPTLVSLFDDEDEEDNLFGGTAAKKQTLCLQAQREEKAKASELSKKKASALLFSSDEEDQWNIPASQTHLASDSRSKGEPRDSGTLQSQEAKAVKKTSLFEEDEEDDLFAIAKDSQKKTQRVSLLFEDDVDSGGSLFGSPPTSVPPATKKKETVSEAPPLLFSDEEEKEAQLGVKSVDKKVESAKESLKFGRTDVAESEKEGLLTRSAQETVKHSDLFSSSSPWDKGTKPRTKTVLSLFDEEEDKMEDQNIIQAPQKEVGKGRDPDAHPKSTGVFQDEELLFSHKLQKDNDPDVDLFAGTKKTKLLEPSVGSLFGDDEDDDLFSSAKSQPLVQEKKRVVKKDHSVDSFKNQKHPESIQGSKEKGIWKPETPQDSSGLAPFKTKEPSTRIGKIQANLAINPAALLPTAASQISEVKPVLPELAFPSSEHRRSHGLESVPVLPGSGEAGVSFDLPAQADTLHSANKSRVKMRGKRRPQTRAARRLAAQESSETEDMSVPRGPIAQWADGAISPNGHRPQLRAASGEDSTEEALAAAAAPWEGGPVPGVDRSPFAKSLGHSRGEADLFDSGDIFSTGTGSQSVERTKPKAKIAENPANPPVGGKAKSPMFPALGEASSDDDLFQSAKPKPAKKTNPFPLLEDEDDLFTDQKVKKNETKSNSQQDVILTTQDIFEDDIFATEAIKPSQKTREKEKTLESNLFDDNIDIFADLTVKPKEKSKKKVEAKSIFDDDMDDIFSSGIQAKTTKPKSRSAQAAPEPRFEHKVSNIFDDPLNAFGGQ
UniProt Q64LD2: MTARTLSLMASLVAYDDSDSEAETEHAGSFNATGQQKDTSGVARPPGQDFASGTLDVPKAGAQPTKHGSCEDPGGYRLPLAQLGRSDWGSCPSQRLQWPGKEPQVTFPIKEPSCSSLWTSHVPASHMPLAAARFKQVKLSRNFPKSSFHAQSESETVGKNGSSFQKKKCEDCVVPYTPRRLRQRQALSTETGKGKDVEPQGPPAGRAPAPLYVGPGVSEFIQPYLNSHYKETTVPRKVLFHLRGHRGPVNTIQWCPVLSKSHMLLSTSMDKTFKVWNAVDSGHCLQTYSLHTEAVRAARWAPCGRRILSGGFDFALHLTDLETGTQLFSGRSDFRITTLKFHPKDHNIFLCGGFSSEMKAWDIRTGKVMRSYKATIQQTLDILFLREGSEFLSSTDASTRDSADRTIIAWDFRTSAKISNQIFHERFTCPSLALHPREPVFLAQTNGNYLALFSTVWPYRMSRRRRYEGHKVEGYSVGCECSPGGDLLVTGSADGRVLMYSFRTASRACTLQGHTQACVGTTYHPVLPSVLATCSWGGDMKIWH
UniProt Q6QNY1: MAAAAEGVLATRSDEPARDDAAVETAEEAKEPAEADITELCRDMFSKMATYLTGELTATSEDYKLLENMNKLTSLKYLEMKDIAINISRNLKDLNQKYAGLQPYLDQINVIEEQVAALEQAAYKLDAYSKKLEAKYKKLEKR
UniProt Q6DCA0: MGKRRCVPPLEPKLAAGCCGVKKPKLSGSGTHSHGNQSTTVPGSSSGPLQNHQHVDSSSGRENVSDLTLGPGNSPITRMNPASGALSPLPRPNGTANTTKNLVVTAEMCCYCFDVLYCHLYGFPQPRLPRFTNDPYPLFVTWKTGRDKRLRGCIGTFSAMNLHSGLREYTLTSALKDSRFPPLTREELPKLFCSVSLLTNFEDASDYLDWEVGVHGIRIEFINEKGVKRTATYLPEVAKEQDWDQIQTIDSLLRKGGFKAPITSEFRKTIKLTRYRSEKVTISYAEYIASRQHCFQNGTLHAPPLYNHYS
UniProt Q6P3X8: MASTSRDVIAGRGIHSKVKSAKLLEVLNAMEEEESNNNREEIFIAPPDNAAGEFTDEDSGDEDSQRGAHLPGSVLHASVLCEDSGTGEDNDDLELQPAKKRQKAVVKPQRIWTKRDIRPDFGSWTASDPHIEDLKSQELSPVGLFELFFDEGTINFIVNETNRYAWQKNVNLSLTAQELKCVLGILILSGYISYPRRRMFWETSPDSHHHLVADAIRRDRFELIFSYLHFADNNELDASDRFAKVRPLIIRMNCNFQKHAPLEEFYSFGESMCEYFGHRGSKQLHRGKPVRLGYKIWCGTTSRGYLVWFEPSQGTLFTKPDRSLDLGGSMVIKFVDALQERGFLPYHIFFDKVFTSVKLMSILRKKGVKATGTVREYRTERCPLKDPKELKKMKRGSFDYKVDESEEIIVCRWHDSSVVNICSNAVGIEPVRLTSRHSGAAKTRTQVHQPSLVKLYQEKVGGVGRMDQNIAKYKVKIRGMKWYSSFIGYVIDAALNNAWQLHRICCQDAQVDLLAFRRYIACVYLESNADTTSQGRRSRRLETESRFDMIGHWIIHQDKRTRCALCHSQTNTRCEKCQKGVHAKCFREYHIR
UniProt Q6PD74: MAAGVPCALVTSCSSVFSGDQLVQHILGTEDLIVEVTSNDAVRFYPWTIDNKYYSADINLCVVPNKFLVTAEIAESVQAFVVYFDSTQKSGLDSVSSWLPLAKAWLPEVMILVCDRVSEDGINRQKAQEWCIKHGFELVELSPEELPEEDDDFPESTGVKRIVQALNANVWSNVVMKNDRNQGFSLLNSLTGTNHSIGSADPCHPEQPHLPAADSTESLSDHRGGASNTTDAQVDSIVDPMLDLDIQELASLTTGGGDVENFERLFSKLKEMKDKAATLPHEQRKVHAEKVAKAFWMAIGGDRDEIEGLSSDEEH
UniProt Q6P0Q8: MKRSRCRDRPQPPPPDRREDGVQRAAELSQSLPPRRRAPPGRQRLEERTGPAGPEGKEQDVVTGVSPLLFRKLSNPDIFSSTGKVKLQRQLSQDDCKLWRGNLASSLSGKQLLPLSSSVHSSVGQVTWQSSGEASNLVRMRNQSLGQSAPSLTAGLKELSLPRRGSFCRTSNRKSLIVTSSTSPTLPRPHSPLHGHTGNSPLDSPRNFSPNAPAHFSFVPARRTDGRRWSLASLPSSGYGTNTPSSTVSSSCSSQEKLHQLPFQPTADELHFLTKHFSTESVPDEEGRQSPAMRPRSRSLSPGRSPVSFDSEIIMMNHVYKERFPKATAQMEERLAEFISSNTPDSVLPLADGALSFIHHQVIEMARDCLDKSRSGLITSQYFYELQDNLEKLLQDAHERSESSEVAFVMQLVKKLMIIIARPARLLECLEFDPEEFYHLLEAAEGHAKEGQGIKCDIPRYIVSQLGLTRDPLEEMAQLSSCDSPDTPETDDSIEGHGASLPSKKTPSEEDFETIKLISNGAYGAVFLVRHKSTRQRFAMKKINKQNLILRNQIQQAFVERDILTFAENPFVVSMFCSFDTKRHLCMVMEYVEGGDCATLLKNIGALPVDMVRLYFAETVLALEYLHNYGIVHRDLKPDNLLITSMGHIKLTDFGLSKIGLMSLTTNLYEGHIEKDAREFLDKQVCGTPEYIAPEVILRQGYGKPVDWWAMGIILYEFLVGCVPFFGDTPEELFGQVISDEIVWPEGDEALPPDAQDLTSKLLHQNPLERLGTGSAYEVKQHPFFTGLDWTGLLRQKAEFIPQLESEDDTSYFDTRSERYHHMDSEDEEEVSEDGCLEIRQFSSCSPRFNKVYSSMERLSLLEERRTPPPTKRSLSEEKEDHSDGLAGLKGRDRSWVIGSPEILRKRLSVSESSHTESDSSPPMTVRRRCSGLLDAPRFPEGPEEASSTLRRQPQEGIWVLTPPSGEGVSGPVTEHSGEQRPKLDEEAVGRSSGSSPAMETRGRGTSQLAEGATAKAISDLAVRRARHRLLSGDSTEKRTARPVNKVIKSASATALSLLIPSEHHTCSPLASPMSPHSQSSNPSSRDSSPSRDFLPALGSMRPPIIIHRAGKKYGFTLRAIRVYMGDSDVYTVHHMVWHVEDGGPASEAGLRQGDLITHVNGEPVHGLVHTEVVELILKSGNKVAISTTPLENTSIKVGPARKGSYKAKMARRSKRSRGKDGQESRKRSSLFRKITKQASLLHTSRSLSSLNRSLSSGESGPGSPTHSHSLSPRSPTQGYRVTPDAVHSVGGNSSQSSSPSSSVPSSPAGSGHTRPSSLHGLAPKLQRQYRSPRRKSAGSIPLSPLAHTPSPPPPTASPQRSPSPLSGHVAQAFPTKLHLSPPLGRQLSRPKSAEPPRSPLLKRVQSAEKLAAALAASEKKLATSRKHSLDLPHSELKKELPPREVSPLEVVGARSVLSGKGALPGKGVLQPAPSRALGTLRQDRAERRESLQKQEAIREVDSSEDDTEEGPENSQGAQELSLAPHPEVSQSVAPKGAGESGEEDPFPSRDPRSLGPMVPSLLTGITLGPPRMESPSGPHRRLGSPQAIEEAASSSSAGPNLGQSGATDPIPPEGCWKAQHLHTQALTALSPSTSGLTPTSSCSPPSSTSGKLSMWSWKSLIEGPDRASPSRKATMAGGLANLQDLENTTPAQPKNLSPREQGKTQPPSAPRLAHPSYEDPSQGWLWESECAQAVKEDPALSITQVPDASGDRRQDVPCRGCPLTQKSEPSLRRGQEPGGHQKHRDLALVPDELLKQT

| Target | log2 fold change |
| --- | --- |
| IQSEC1 (peptide sequence: QMIGEFLGNR, peptide start residue: 572) (UniProt Q6DN90) | 0.142 |
| UniProt Q6TFL4 (peptide sequence: YHILGNEMMSPR, peptide start residue: 291) | 0.497 |
| RANBP10 (peptide sequence: ELQALSEQLGR, peptide start residue: 517) (UniProt Q6VN20) | -0.418 |
| UniProt Q6PIY7 (peptide sequence: EIQLLFPQSR, peptide start residue: 187) | -0.807 |
| ZNF562 (peptide sequence: RIHTGEKPYECVECGK, peptide start residue: 392) (UniProt Q6V9R5) | 1.02 |
| CWF19L1 (peptide sequence: SHHLQLQVIPVPISCSTTDDIK, peptide start residue: 412) (UniProt Q69YN2) | -0.609 |
| DHX57 (peptide sequence: HFDSPYLLYHEK, peptide start residue: 1275) (UniProt Q6P158) | -0.641 |
| C6orf89 (peptide sequence: CSFLHPEPVVGSK, peptide start residue: 263) (UniProt Q6UWU4) | 0.139 |
| UniProt Q6P444 (peptide sequence: FGHHISQSEGQR, peptide start residue: 349) | -0.85 |
| SWSAP1 (peptide sequence: GTGTTLDPMR, peptide start residue: 51) (UniProt Q6NVH7) | 0.217 |
| INTS5 (peptide sequence: MFHDSLAGGSGGR, peptide start residue: 316) (UniProt Q6P9B9) | 0.12 |
| INO80C (peptide sequence: RLPSDVVTGYLALR, peptide start residue: 172) (UniProt Q6PI98) | -0.154 |
| UniProt Q641Q2 (peptide sequence: KQTLCLQAQREEK, peptide start residue: 590) | 0.487 |
| UniProt Q64LD2 (peptide sequence: KKCEDCVVPYTPR, peptide start residue: 167) | 0.369 |
| UniProt Q6AHZ1 (peptide sequence: INIPNEVLLK, peptide start residue: 55) | 0.208 |
| NCAPH2 (peptide sequence: GPSFADMEVLYWTHVK, peptide start residue: 383) (UniProt Q6IBW4) | -0.383 |
| BLOC1S2 (peptide sequence: DIAINISR, peptide start residue: 82) (UniProt Q6QNY1) | -0.275 |
| UniProt Q6ECI4 (peptide sequence: VHTGEKPYECIECGK, peptide start residue: 333) | 0.714 |
| UniProt Q6IQ55 (peptide sequence: SEITQPDRDIPLVR, peptide start residue: 428) | 0.349 |

Three entries picked at random from those above, as already listed:

| Target | log2 fold change |
| --- | --- |
| UniProt Q6PIY7 (peptide sequence: EIQLLFPQSR, peptide start residue: 187) | -0.807 |
| UniProt Q6ECI4 (peptide sequence: VHTGEKPYECIECGK, peptide start residue: 333) | 0.714 |
| IQSEC1 (peptide sequence: QMIGEFLGNR, peptide start residue: 572) (UniProt Q6DN90) | 0.142 |

The list goes on:

| Target | log2 fold change |
| --- | --- |
| AMMECR1L (peptide sequence: ENVSDLTLGPGNSPITR, peptide start residue: 62) (UniProt Q6DCA0) | -0.237 |
| UniProt Q6NSW5 (peptide sequence: TLPALVWHR, peptide start residue: 199) | -0.357 |
| FAM199X (peptide sequence: FLTPEEPFPLLGPPR, peptide start residue: 14) (UniProt Q6PEV8) | 0.388 |
| UniProt Q6P3X8 (peptide sequence: FDMIGHWIIHQDKR, peptide start residue: 547) | 0.753 |
| UniProt Q6NT16 (peptide sequence: SQNILSTEEER, peptide start residue: 438) | -0.135 |
| DUS1L (peptide sequence: PKLQGFEFWSR, peptide start residue: 2) (UniProt Q6P1R4) | 0.35 |
| ADAMTSL4 (peptide sequence: VPFALPLHR, peptide start residue: 162) (UniProt Q6UY14) | 0.357 |
| KANK2 (peptide sequence: FLGHPTAGR, peptide start residue: 235) (UniProt Q63ZY3) | 0.436 |
| UniProt Q6PI47 (peptide sequence: VLLSDKKPTPQR, peptide start residue: 364) | 0.363 |
| E4F1 (peptide sequence: GTVIHEVHVQMQELSLGMK, peptide start residue: 329) (UniProt Q66K89) | 0.401 |
| UniProt Q6T423 (peptide sequence: QELEAAQK, peptide start residue: 326) | 0.0391 |
| INTS3 (peptide sequence: IGYHLLYYLR, peptide start residue: 687) (UniProt Q68E01) | 0.627 |
| PPP2R2D (peptide sequence: AEGYNLKDEDGR, peptide start residue: 137) (UniProt Q66LE6) | -0.223 |
| AAGAB (peptide sequence: DKAATLPHEQRK, peptide start residue: 274) (UniProt Q6PD74) | 0.987 |
| TET2 (peptide sequence: NLLDTPVK, peptide start residue: 1118) (UniProt Q6N021) | -0.439 |
| UniProt Q6IN85 (peptide sequence: LKGMSLLVR, peptide start residue: 35) | 0.192 |
| UniProt Q6UXG8 (peptide sequence: AHDGGEHPDPLTICPLPVR, peptide start residue: 490) | -0.162 |
| MAST2 (peptide sequence: QHPFFTGLDWTGLLR, peptide start residue: 781) (UniProt Q6P0Q8) | -0.432 |

— the supplement of paper PMC12819154, “High-throughput peptide-centric local stability assay extends protein–ligand identification to membrane proteins, tissues and bacteria” (Nature Structural & Molecular Biology, 2025)
